{
  "source": "paper PMC12670160",
  "about": "“A drug-repurposing screen of FDA- and EMA-approved drugs identifies two NF-κB inhibitors active against eumycetoma” (Journal of Antimicrobial Chemotherapy, 2025)",
  "system": "M. mycetomatis strain mm55",
  "conditions": "96 h, 2 µM",
  "key": {"[1]": {"conditions": "primary screen, metabolic activity vs growth control, inhibitor"}},
  "note": "Where a name gives a salt, the structure may show the parent alone. Read-outs that look alike come from different tables or passages of the source. The whole screen tested about 5,300 compounds, of which about 130 (2.5%) showed an effect of 50% or more. The list shows a part of the results.",
  "data": [
    {"smiles": "O=C(O)CCCCCCNC1c2ccccc2CCc2ccccc21", "note": "[ONC0001787, amineptine]", "values": [
      {"measurement": "% viability", "setting": "m. mycetomatis hyphae", "result": 104.5, "unit": "%"}
    ]},
    {"smiles": "OC12C3C4CC5C6C4C1C6C(C53)N2CCc1cccc(F)c1", "note": "(stereo not shown) [ONC0003587, tc1]", "values": [
      {"measurement": "% viability", "setting": "m. mycetomatis hyphae", "result": 102, "unit": "%"}
    ]},
    {"smiles": "Cn1cc(C(=O)C(=O)N[C@H]2CN3CCC2CC3)c2ccccc21", "note": "[ONC0002562, rs56812]", "values": [
      {"measurement": "% viability", "setting": "m. mycetomatis hyphae", "result": 62.85, "unit": "%"}
    ]},
    {"smiles": "CC[C@@H](c1cccc(O)c1)[C@@H](C)CN(C)C", "note": "[ONC0001216, tapentadol hydrochloride]", "values": [
      {"measurement": "% viability", "setting": "m. mycetomatis hyphae", "result": 104.5, "unit": "%"}
    ]},
    {"smiles": "C[C@@H](N)[C@@H](O)c1ccccc1", "note": "[ONC0000448, 1s2rphenylpropanolamine hydrochloride]", "values": [
      {"measurement": "% viability", "setting": "m. mycetomatis hyphae", "result": 91.03, "unit": "%"}
    ]},
    {"smiles": "C[C@@H](N)C(=O)N[C@@H](CO)C(=O)N[C@H](C(=O)N[C@H](C(=O)N[C@H](C(=O)N[C@@H](CC(N)=O)C(=O)N[C@@H](Cc1ccc(O)cc1)C(=O)N[C@H](C(N)=O)[C@@H](C)O)[C@@H](C)O)[C@@H](C)O)[C@@H](C)O", "note": "[ONC0001968, dapta]", "values": [
      {"measurement": "% viability", "setting": "[1]", "result": 96.08, "unit": "%"}
    ]},
    {"smiles": "C#Cc1cccc2c1c(C(=O)c1ccc(Cn3c(C)nc4cnccc43)c(F)c1)cn2C(=O)N(C)C", "note": "[ONC0001879, abt491]", "values": [
      {"measurement": "% viability", "setting": "m. mycetomatis hyphae", "result": 73.37, "unit": "%"}
    ]},
    {"smiles": "CCOC(=O)c1ccc(-c2ccc(OC(=O)N(C)Cc3cccc(-c4ccncc4)c3)cc2)cc1", "note": "[ONC0001242, wwl113]", "values": [
      {"measurement": "% viability", "setting": "m. mycetomatis hyphae", "result": 84.51, "unit": "%"}
    ]},
    {"smiles": "C=C(C)CN1CC[C@]23c4c5ccc(O)c4O[C@H]2c2[nH]c4ccccc4c2C[C@@]3(O)C1C5", "note": "[ONC0001783, sdm25n]", "values": [
      {"measurement": "% viability", "setting": "m. mycetomatis hyphae", "result": 88.61, "unit": "%"}
    ]},
    {"smiles": "CC(C)C[C@H](NC(=O)[C@H](Cc1ccccc1)NC(=O)CNC(=O)[C@H](C)NC(=O)[C@@H](N)Cc1ccc(O)cc1)C(=O)O", "note": "[ONC0001965, dadle]", "values": [
      {"measurement": "% viability", "setting": "m. mycetomatis hyphae", "result": 88.98, "unit": "%"}
    ]},
    {"smiles": "Cc1nccc2c1[nH]c1ccccc12", "note": "[ONC0000054, harmane]", "values": [
      {"measurement": "% viability", "setting": "m. mycetomatis hyphae", "result": 123.4, "unit": "%"}
    ]},
    {"smiles": "C[C@]12C=CC(=O)C=C1CC[C@@H]1[C@@H]2CC[C@]2(C)OC(=O)CC[C@@H]12", "note": "[ONC0001092, testolactone]", "values": [
      {"measurement": "% viability", "setting": "m. mycetomatis hyphae", "result": 64.15, "unit": "%"}
    ]},
    {"smiles": "NC(=S)N/N=C/c1coc2ccccc2c1=O", "note": "[ONC0001578, fpa124]", "values": [
      {"measurement": "% viability", "setting": "m. mycetomatis hyphae", "result": 55.38, "unit": "%"}
    ]},
    {"smiles": "O=C1CCCN1CC#CCN1CCCC1", "note": "[ONC0004217, oxotremorine sesquifumarate]", "values": [
      {"measurement": "% viability", "setting": "m. mycetomatis hyphae", "result": 59.84, "unit": "%"}
    ]},
    {"smiles": "C[C@]12N[C@H](Cc3ccccc31)c1ccccc12", "note": "[ONC0001642, dizocilpine]", "values": [
      {"measurement": "% viability", "setting": "m. mycetomatis hyphae", "result": 59.2, "unit": "%"}
    ]},
    {"smiles": "CC(C)n1cnc2c(C(=O)N[C@H]3CN4CCC3CC4)cc(Cl)cc21", "note": "[ONC0000102, rs16566]", "values": [
      {"measurement": "% viability", "setting": "m. mycetomatis hyphae", "result": 74.83, "unit": "%"}
    ]},
    {"smiles": "C[C@]12CCC(=O)C=C1CC[C@@H]1[C@@H]2[C@@H](O)C[C@]2(C)C(=O)CC[C@@H]12", "note": "[ONC0005400, npc01]", "values": [
      {"measurement": "% viability", "setting": "m. mycetomatis hyphae", "result": 89.74, "unit": "%"}
    ]},
    {"smiles": "C[C@H]1CN(Cc2ccc(CC(=O)N3CCC(Nc4cccc(F)c4)CC3)cc2)CCN1", "note": "[ONC0001179, camicinal]", "values": [
      {"measurement": "% viability", "setting": "m. mycetomatis hyphae", "result": 144.9, "unit": "%"}
    ]},
    {"smiles": "C[C@](O)(COc1ccc(C#N)cc1)C(=O)Nc1ccc(C#N)c(C(F)(F)F)c1", "note": "[ONC0004736, mk2866 gtx024]", "values": [
      {"measurement": "% viability", "setting": "m. mycetomatis hyphae", "result": 95.08, "unit": "%"}
    ]},
    {"smiles": "CC(=O)Nc1ccc(OC[C@](C)(O)C(=O)Nc2ccc([N+](=O)[O-])c(C(F)(F)F)c2)cc1", "note": "[ONC0004917, andarine gtx007]", "values": [
      {"measurement": "% viability", "setting": "m. mycetomatis hyphae", "result": 124.1, "unit": "%"}
    ]},
    {"smiles": "COc1ccc2c3c([nH]c2c1)[C@H](CC(C)C)N1C(=O)[C@H](CCC(=O)OC(C)(C)C)NC(=O)[C@@H]1C3", "note": "[ONC0001315, ko 143]", "values": [
      {"measurement": "% viability", "setting": "m. mycetomatis hyphae", "result": 71.5, "unit": "%"}
    ]},
    {"smiles": "COc1cc(OC)c(/C=C/S(=O)(=O)Cc2ccc(OC)c(OP(=O)(O)O)c2)c(OC)c1", "note": "[ONC0002087, briciclib]", "values": [
      {"measurement": "% viability", "setting": "m. mycetomatis hyphae", "result": 78.31, "unit": "%"}
    ]},
    {"smiles": "N#CN1CCCC1", "note": "[ONC0002979, pyrrolidine1carbonitrile]", "values": [
      {"measurement": "% viability", "setting": "m. mycetomatis hyphae", "result": 75.45, "unit": "%"}
    ]},
    {"smiles": "CC(N)Cc1c[nH]c2ccc(O)cc12", "note": "(stereo not shown) [ONC0001623, alphamethylserotonin]", "values": [
      {"measurement": "% viability", "setting": "m. mycetomatis hyphae", "result": 78.58, "unit": "%"}
    ]},
    {"smiles": "COc1cc2c(cc1OC)[C@@]13CCN4CC5=CCO[C@H]6CC(=O)N2[C@H]1[C@H]6[C@H]5C[C@H]43", "note": "[ONC0003202, brucine]", "values": [
      {"measurement": "% viability", "setting": "m. mycetomatis hyphae", "result": 95.04, "unit": "%"}
    ]},
    {"smiles": "CC(C)(C)NCC(O)c1cc(Cl)c(N)c(Cl)c1", "note": "(stereo not shown) [ONC0002379, clenbuterol hydrochloride]", "values": [
      {"measurement": "% viability", "setting": "m. mycetomatis hyphae", "result": 74.45, "unit": "%"}
    ]},
    {"smiles": "COC(=O)C1=CCCN(C)C1", "note": "[ONC0000647, arecoline hydrobromide]", "values": [
      {"measurement": "% viability", "setting": "m. mycetomatis hyphae", "result": 79.19, "unit": "%"}
    ]},
    {"smiles": "CC(CN)CC(=O)O", "note": "(stereo not shown) [ONC0000097, 3methylgaba]", "values": [
      {"measurement": "% viability", "setting": "m. mycetomatis hyphae", "result": 107.5, "unit": "%"}
    ]},
    {"smiles": "Cc1ccccc1CN1C(=O)C2=C(CCN(Cc3ccccc3)C2)N2CCN=C12", "note": "[ONC0003867, onc201]", "values": [
      {"measurement": "% viability", "setting": "m. mycetomatis hyphae", "result": 81.96, "unit": "%"}
    ]},
    {"smiles": "C=C1C(=O)O[C@@H]2[C@H]3C(C)=CC[C@@]34O[C@@]4(C)CC[C@@H]12", "note": "[ONC0001228, arglabin]", "values": [
      {"measurement": "% viability", "setting": "m. mycetomatis hyphae", "result": 103.5, "unit": "%"}
    ]},
    {"smiles": "FC(F)OC(F)(F)C(F)Cl", "note": "(stereo not shown) [ONC0002958, enflurane]", "values": [
      {"measurement": "% viability", "setting": "m. mycetomatis hyphae", "result": 111.8, "unit": "%"}
    ]},
    {"smiles": "CCC1(CC)C(=O)C=CNC1=O", "note": "[ONC0002888, pyrithyldione]", "values": [
      {"measurement": "% viability", "setting": "m. mycetomatis hyphae", "result": 105.3, "unit": "%"}
    ]},
    {"smiles": "C[C@]12CCC(=O)C=C1CCC1C2CC[C@@]2(C)C1CC[C@@H]2O", "note": "(stereo partly shown) [ONC0003315, testosterone]", "values": [
      {"measurement": "% viability", "setting": "m. mycetomatis hyphae", "result": 85.5, "unit": "%"}
    ]},
    {"smiles": "C=CCN1CC[C@@]2(C)c3cc(O)ccc3C[C@H]1[C@H]2C", "note": "[ONC0000854, skf10047]", "values": [
      {"measurement": "% viability", "setting": "m. mycetomatis hyphae", "result": 56.88, "unit": "%"}
    ]},
    {"smiles": "Clc1ccc(CO/N=C(\\Cn2ccnc2)c2ccc(Cl)cc2Cl)c(Cl)c1", "note": "[Oxiconazole nitrate]", "values": [
      {"measurement": "% viability", "setting": "m. mycetomatis hyphae", "result": 0.8852, "unit": "%"}
    ]},
    {"smiles": "NCCc1cc(O)c(O)cc1O", "note": "[ONC0000567, oxidopamine hydrochloride]", "values": [
      {"measurement": "% viability", "setting": "m. mycetomatis hyphae", "result": 71.43, "unit": "%"}
    ]},
    {"smiles": "Clc1cccc(N2CCNCC2)c1", "note": "[ONC0001948, 13chlorophenylpiperazinehcl]", "values": [
      {"measurement": "% viability", "setting": "m. mycetomatis hyphae", "result": 73.05, "unit": "%"}
    ]},
    {"smiles": "CC[N+](CC)(CCCNC1=CC(=O)C(NCCC[N+](CC)(CC)Cc2ccccc2)=CC1=O)Cc1ccccc1", "note": "[ONC0001930, benzoquinoniumdibromide]", "values": [
      {"measurement": "% viability", "setting": "m. mycetomatis hyphae", "result": 91.76, "unit": "%"}
    ]},
    {"smiles": "O=P(O)(NCCCl)NCCCl", "note": "[ONC0001217, palifosfamide]", "values": [
      {"measurement": "% viability", "setting": "m. mycetomatis hyphae", "result": 150.6, "unit": "%"}
    ]},
    {"smiles": "C[C@H]1CCC/C=C/[C@@H]2C[C@H](O)C[C@H]2[C@H](O)/C=C/C(=O)O1", "note": "[ONC0000753, brefeldina]", "values": [
      {"measurement": "% viability", "setting": "[1]", "result": 102, "unit": "%"}
    ]}
  ]
}
